Data on six substances can be found in patent US8252764B2, “Compositions and methods of use of targeting peptides against placenta and adipose tissues” (priority 2000, dated 2012).

The data set has as its system mouse placenta. The experiment in a line: In vivo biopanning of phage display library in pregnant mice with post-clearing (clone frequency). Conditions: for frequency of phage clone in round III: round III of in vivo biopanning on placenta; for frequency of phage clone in round IV: after post-clearing in non-pregnant mouse.

In the case of LGLRSVG, the “frequency of phage clone in round III” value is below 1% and the “frequency of phage clone in round IV” value came out at 5.3%.

Take RAPGGVR: the “frequency of phage clone in round III” value is listed as below 1% and the “frequency of phage clone in round IV” value stood at 8.5%.

Regarding RMDGPVR, the “frequency of phage clone in round III” value came to 3.1% and the “frequency of phage clone in round IV” value was found to be 8.5%.

Regarding TPKTSVT [placenta targeting peptide], the “frequency of phage clone in round III” value is 7.4% and the “frequency of phage clone in round IV” value worked out at 8.5%.

With VGLHARA, the “frequency of phage clone in round III” value is reported as 4.2% and the “frequency of phage clone in round IV” value was determined as 7.4%.

YIRPFTL: the “frequency of phage clone in round III” value was found to be 2.1% and the “frequency of phage clone in round IV” value stood at 5.3%.
